Results are given in words; binding and its absence hold for the method and conditions named. For some assays here: In cells and extracts the contact can be indirect. Some results given as binding are weak or reduced against the parent protein; the word gives no strength. Sequences can lack the tags named with a protein.

Protein sequences, listed by entry. Tags and fused reporters are not part of them.
UniProt P49069: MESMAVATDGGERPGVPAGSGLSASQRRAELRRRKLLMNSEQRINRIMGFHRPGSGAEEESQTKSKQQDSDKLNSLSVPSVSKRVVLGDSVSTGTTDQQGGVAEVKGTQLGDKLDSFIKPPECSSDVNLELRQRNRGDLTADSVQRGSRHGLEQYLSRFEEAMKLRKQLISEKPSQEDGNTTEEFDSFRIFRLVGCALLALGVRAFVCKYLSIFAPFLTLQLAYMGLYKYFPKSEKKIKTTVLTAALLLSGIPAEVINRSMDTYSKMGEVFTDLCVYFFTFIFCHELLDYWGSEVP

Results on two substances are retold here after PMC2905333.

For experiment [1], the target named is T1, RNF122-myc (human) (UniProt Q9H9V4).
T1 sequence: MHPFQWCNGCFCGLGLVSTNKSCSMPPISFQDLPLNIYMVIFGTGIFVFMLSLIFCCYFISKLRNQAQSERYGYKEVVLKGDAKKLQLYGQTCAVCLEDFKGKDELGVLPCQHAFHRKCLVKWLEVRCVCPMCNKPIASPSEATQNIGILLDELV
Description: co-IP; HEK293T cotransfected with RNF122-myc or mut-RNF122-myc and CAML-FLAG; 2.5 μg/mL MG132 for 6 h; lysed in PBS with 1% Triton X-100; immunoprecipitated with anti-myc antibody agarose beads, blot with anti-FLAG.

Experiment [2] addresses T2, RNF122 bait (Gal4 DNA-binding domain fusion) (human) (UniProt Q9H9V4).
T2 sequence: T1 sequence
Put plainly: two-hybrid; Gal4 system; RNF122 bait (pGBK-RC) and prey vectors (pGAD-RC, library of 1500 known genes) cotransfected in yeast Y190, SD/-T-L-H, colony lift filter assays.

Take “FLAG-tagged CAML (CAML-FLAG) (from UniProt P49069 1-296)”: the binding entry in experiment [1] is “binds”.
On to “CAML prey (Gal4 activation domain fusion) (from UniProt P49069 1-296)”, for which the binding result in experiment [2] was “binds”.
